The source of these data is paper PMC7073140 (International Journal of Molecular Sciences, 2020).

Residues, ends and D or L forms follow the SMILES beside them.

One data set relates to bacterial cells over human erythrocytes.
Assay: not given
Conditions: calculated as HC10/GM.
As to `CC[C@H](C)[C@H](NC(=O)[C@H](CCCCN)NC(=O)[C@H](CCCNC(=N)N)NC(=O)[C@H](CC(C)C)NC(=O)[C@H](Cc1ccccc1)NC(=O)[C@H](CCCNC(=N)N)NC(=O)CNC(=O)[C@H](Cc1ccccc1)NC(=O)[C@@H](N)CCCNC(=N)N)C(=O)N[C@@H](CCCNC(=N)N)C(=O)N[C@@H](CCCNC(=N)N)C(=O)N[C@@H](Cc1ccccc1)C(=O)N[C@@H](CCCNC(=N)N)C(=O)N1CCC[C@H]1C(=O)N[C@@H](CCCCN)C(N)=O` [FO] (H-RFGRFLRKIRRFRPK-NH2), the “Therapeutic Index (TI)” value is 0.11.

Take `CC[C@H](C)[C@H](NC(=O)[C@H](CCCCN)NC(=O)[C@H](CCCCN)NC(=O)[C@H](Cc1ccccc1)NC(=O)[C@H](CC(C)C)NC(=O)[C@H](CCCCN)NC(=O)[C@H](Cc1c[nH]c2ccccc12)NC(=O)[C@@H](N)CCCCN)C(N)=O` [CA] (H-KWKLFKKI-NH2): the “Therapeutic Index (TI)” value is on record as 0.08.

For `CC[C@H](C)[C@H](NC(=O)[C@H](CCCCN)NC(=O)[C@H](CCCCN)NC(=O)[C@H](Cc1ccccc1)NC(=O)[C@H](CC(C)C)NC(=O)[C@H](CCCCN)NC(=O)[C@H](Cc1c[nH]c2ccccc12)NC(=O)[C@@H](N)CCCCN)C(=O)N[C@@H](Cc1c[nH]c2ccccc12)C(=O)N[C@@H](Cc1c[nH]c2ccccc12)C(=O)N1CCC[C@H]1C(=O)N[C@@H](Cc1ccccc1)C(=O)N[C@@H](CC(C)C)C(=O)N[C@@H](CCCNC(=N)N)C(=O)N[C@@H](CCCNC(=N)N)C(N)=O` [CA-TP] (H-KWKLFKKIWWPFLRR-NH2), the “Therapeutic Index (TI)” value is 18.26.

`CC[C@H](C)[C@H](NC(=O)[C@H](CCCCN)NC(=O)[C@H](CCCCN)NC(=O)[C@H](Cc1ccccc1)NC(=O)[C@H](CC(C)C)NC(=O)[C@H](CCCCN)NC(=O)[C@H](Cc1c[nH]c2ccccc12)NC(=O)[C@@H](N)CCCCN)C(=O)N[C@@H](CCCNC(=N)N)C(=O)N[C@@H](Cc1ccccc1)C(=O)NCC(=O)N[C@@H](CCCNC(=N)N)C(=O)N[C@@H](Cc1ccccc1)C(=O)N[C@@H](CC(C)C)C(=O)N[C@@H](CCCNC(=N)N)C(=O)N[C@@H](CCCCN)C(=O)N[C@H](C(=O)N[C@@H](CCCNC(=N)N)C(=O)N[C@@H](CCCNC(=N)N)C(=O)N[C@@H](Cc1ccccc1)C(=O)N[C@@H](CCCNC(=N)N)C(=O)N1CCC[C@H]1C(=O)N[C@@H](CCCCN)C(N)=O)[C@@H](C)CC` [CA-FO] (H-KWKLFKKIRFGRFLRKIRRFRPK-NH2): the “Therapeutic Index (TI)” value was 41.80.

Consider `CC(C)C[C@H](NC(=O)[C@H](Cc1ccccc1)NC(=O)[C@@H]1CCCN1C(=O)[C@H](Cc1c[nH]c2ccccc12)NC(=O)[C@@H](N)Cc1c[nH]c2ccccc12)C(=O)N[C@@H](CCCNC(=N)N)C(=O)N[C@@H](CCCNC(=N)N)C(N)=O` [TP] (H-WWPFLRR-NH2), for which the “Therapeutic Index (TI)” value was 0.34.

Tested on in a further data set: not listed separately
The data set can be described thus: peptide made by a vendor. Conditions: whole synthesis, 220 nm.
On to RFGRFLRKIRRFRPK-NH2, for which the “final HPLC purity” value is listed as 99.25%.

Take KWKLFKKI-NH2: the “final HPLC purity” value came out at 95.74%.

Turning to KWKLFKKIRFGRFLRKIRRFRPK-NH2, the “final HPLC purity” value is 95.72%.

As for KWKLFKKIWWPFLRR-NH2, the “final HPLC purity” value is given as 97.42%.

For the compound WWPFLRR-NH2, the “final HPLC purity” value stood at 98.33%.
